In PMC7819943, “Rice protein-binding microarrays: a tool to detect cis-acting elements near promoter regions in rice”:
The other results are listed elsewhere or left out.

Chains of the proteins cited; added tags and fusions are not shown.
UniProt Q0JBA9, entry or part of it: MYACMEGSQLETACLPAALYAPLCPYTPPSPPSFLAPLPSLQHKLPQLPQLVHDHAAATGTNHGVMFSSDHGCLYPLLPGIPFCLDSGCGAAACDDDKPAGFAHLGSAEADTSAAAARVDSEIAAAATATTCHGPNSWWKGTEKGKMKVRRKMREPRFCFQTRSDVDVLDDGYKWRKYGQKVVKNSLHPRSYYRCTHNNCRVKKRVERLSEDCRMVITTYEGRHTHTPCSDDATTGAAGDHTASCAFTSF

Molecular target: OsWRKY34 (Oryza sativa, UniProt Q0JBA9 1-250)
Assay: protein-binding microarray (RPBM); PBS, 2% BSA, 51.3 ng/ul salmon testes DNA, 50 uM zinc acetate, 200 nM TF, 25 C, 1 h; high values mean tight binding
Details: protein: recombinant; tags: N-terminal polyhistidine and DsRed monomer fusion (pET32a); label: CyDye5-dUTP incorporated in the synthesized complementary strand; 3' TTTTT single-stranded linker to array surface; dsDNA, one strand shown
In short: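 Binding signal here means per-feature fluorescence intensity in arbitrary units. The values were read on an Axon 4000B scanner after a custom Agilent array, double-stranded by primer extension with Cy5-dUTP, was incubated with 200 nM protein at 25 °C for 1 h in PBS with 2% BSA, salmon testes DNA and 50 µM zinc acetate, then washed. The proteins were transcription factors with an N-terminal polyhistidine tag and DsRed, expressed in E. coli BL21-CodonPlus and purified on Ni–NTA.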

Sequence	binding signal
ACTGGAATTTGCTTGCGTTCGTTCGTTCGTTAACCCTAGCCGGAGTCACCTAGTGCAG	10000 fluorescence intensity (a.u.)
AATCTCATATATTTTCATTGAATGTTTTCAAATTGTTGGTCGGAGTCACCTAGTGCAG	9070 fluorescence intensity (a.u.)
CTTGCTTCTGCTTGCCCATTTGATGATTTGATTTGATTTGCGGAGTCACCTAGTGCAG	10900 fluorescence intensity (a.u.)
GCGGCGGTGGCGGCCGGGGAGGTGGGAGACAGCGGGGTGGCGGAGTCACCTAGTGCAG	16300 fluorescence intensity (a.u.)
CCGCGCAATTGACTTTCCCGGCCGCGCACCGCACGTCGTGCGGAGTCACCTAGTGCAG	9210 fluorescence intensity (a.u.)
ACCTGGCTGTGCATGTACTACCCCAATGCATTTCTCTCTCCGGAGTCACCTAGTGCAG	8250 fluorescence intensity (a.u.)
AGGCTCAAAAGATTCGTCTCGCGGTTTCTAGGTAAGTTATCGGAGTCACCTAGTGCAG	8220 fluorescence intensity (a.u.)
CTCCCGCTGCATTTGCTACCAGATCTTCCTCACCGCTAGCCGGAGTCACCTAGTGCAG	9240 fluorescence intensity (a.u.)
GCCAGTGCAGCCCACCCGAGGGTTTATATGCGTGCACGCACGGAGTCACCTAGTGCAG	9720 fluorescence intensity (a.u.)
TCGGCGGCGTTCTTCGGTTTCTCCGCTCACTTGCTCCCGCCGGAGTCACCTAGTGCAG	10500 fluorescence intensity (a.u.)
GTACTAGGCCACACACTAACCGTGCAGCGAGCTTAAATTACGGAGTCACCTAGTGCAG	8550 fluorescence intensity (a.u.)
CCCACTTATAGTTCTATTTTCTGGAATTCCCCATATATGACGGAGTCACCTAGTGCAG	8660 fluorescence intensity (a.u.)
ACATACACATCCGCTGATAATCTCTTGACCAAACCGATCCCGGAGTCACCTAGTGCAG	8200 fluorescence intensity (a.u.)
GCCGACCCCGCCGCAATAACCACACCAGCTTTATCTTCCACGGAGTCACCTAGTGCAG	9800 fluorescence intensity (a.u.)
AACCCAGCTCGTATCATGCCATATCCATCCAAAGATAATCCGGAGTCACCTAGTGCAG	8660 fluorescence intensity (a.u.)
TCGGGGCGGGTCTGGGAGGGCTTGCGCTTGACACGGACGACGGAGTCACCTAGTGCAG	17200 fluorescence intensity (a.u.)
TCCCCATCAGTGTTGTATCAGCCCTGTGGTCTCGCCCCAACGGAGTCACCTAGTGCAG	8120 fluorescence intensity (a.u.)
GCATATTCCTAATGACAATCACTGCTTTCTTTTGATACTGCGGAGTCACCTAGTGCAG	10100 fluorescence intensity (a.u.)
GTTACCCCGATTAGTTAGTTTATGTTGTACATGCTGTTGACGGAGTCACCTAGTGCAG	11000 fluorescence intensity (a.u.)
TAACCAGAGTAAATTTTTGGCCAACTTAAGTGCTTTCATACGGAGTCACCTAGTGCAG	9070 fluorescence intensity (a.u.)
ACAAATCCTGGTCATTTCTTGACCGTATGAATTCTAGAAACGGAGTCACCTAGTGCAG	9650 fluorescence intensity (a.u.)

Sequence	binding signal
ATGCTGTCTGTACTGTCCCATATGAACTCTTCTGAACAACCGGAGTCACCTAGTGCAG	8370 fluorescence intensity (a.u.)
TTCTGATCAAGGTTTAGACCGCCCAAGGCTTTGACCAATACGGAGTCACCTAGTGCAG	8800 fluorescence intensity (a.u.)
GCTCCGTTTTCACCCTTCGCAAACGTGCCCTTAAGACATTCGGAGTCACCTAGTGCAG	9010 fluorescence intensity (a.u.)
GCTAGTGGGGTGAGGGTGTGTGTTTGGTTGGTGAGCAATGCGGAGTCACCTAGTGCAG	8710 fluorescence intensity (a.u.)
TTCATTTGGCCCTTCATATATGCTCTCTCCGTAAAAAAAACGGAGTCACCTAGTGCAG	9480 fluorescence intensity (a.u.)
CATTCCACCTAGCTTAATTTAATTAATTAATCCTTTCAGCCGGAGTCACCTAGTGCAG	9540 fluorescence intensity (a.u.)
GTTCCCAACGGTCACCTCGTCGTCGTTGCCAAATCTGCCACGGAGTCACCTAGTGCAG	8670 fluorescence intensity (a.u.)
TTCACGACCTTCCATCCGCCGTTCCGGCTATTTCCCTTACCGGAGTCACCTAGTGCAG	8120 fluorescence intensity (a.u.)
CTGGTTCGGGAATTTCTGGGTGTATAGGGAAATAATTTATCGGAGTCACCTAGTGCAG	8060 fluorescence intensity (a.u.)
TAGGGTTGGTTGAGTGAATCAGGTGAAATACGTTTTTTGTCGGAGTCACCTAGTGCAG	9210 fluorescence intensity (a.u.)
TTGAAACCGTCTTGGGATTTATTTTGCATTGGTTTTGATACGGAGTCACCTAGTGCAG	8070 fluorescence intensity (a.u.)
GGGGTGTTTAGATTCAGTGGTGTAAAGTTTTAACGTGTCACGGAGTCACCTAGTGCAG	10300 fluorescence intensity (a.u.)
TCCGTTTCGGAATGTTTGACGCCGTTGACTTTTTATTACACGGAGTCACCTAGTGCAG	25400 fluorescence intensity (a.u.)
TCCCAGTATATCTGAAAAACCTCATCCCGTTTCACCATTTCGGAGTCACCTAGTGCAG	8040 fluorescence intensity (a.u.)
CAGTATCATTCGCAGGCCTGTAGCTTTCCTACATTTGTCCCGGAGTCACCTAGTGCAG	9320 fluorescence intensity (a.u.)
CAACTCGTACTATCCCTTTGCACAGCCAGCAGGTTAACCACGGAGTCACCTAGTGCAG	11100 fluorescence intensity (a.u.)
TTCCTTTTCTTGGGGTCGAGGGCAACAGTATCCCTCACTTCGGAGTCACCTAGTGCAG	10800 fluorescence intensity (a.u.)
AGTTTATTGTACCTGCTCTTATTCCACTCATATTATTACACGGAGTCACCTAGTGCAG	9420 fluorescence intensity (a.u.)
GCGCCTCTGTCCGCCTCCGCCGCTGCCCTCCGCCACCTCGCGGAGTCACCTAGTGCAG	8880 fluorescence intensity (a.u.)
TACATCGGTTTTGATAGTTGAGGTACCCGTCGTATTTGGTCGGAGTCACCTAGTGCAG	8390 fluorescence intensity (a.u.)
CTCCGCCTCCGCCTCCGCGTGATCTCTTCTCGCTTCACGCCGGAGTCACCTAGTGCAG	9160 fluorescence intensity (a.u.)

Sequence	binding signal
TTTTTGTTTAATTGTGTGGTCTAGATAGTCTAGGATCATCCGGAGTCACCTAGTGCAG	8250 fluorescence intensity (a.u.)
GCAGCATCACACGTACTCAGAATTCAGAAACACACAACCACGGAGTCACCTAGTGCAG	8660 fluorescence intensity (a.u.)
ATATGCATGCCATTATCTCTTCTTCAGGGACCAACTTATACGGAGTCACCTAGTGCAG	8930 fluorescence intensity (a.u.)
ATCCACCAACATTCTCTTCCCAACCAATCACAACCCTCCACGGAGTCACCTAGTGCAG	8140 fluorescence intensity (a.u.)
CGTGGCCTAGTTTTGCAAGATTAATCTGGACCGTTGATAGCGGAGTCACCTAGTGCAG	8440 fluorescence intensity (a.u.)
ACACACCCCGTGCCACGTCGGCCTCACACCCCTCAGGTTACGGAGTCACCTAGTGCAG	8840 fluorescence intensity (a.u.)
AAGAACTGATCATCGACTGACATCACTACCTTTTTCATATCGGAGTCACCTAGTGCAG	8610 fluorescence intensity (a.u.)
ACTGCTCCTCGCTTTCGTTTCTCCGAGAGGTTTAGGTTAACGGAGTCACCTAGTGCAG	11300 fluorescence intensity (a.u.)
TTCCGCACACTCCACTCCACCCCACCCGCTGCCTCTGCCTCGGAGTCACCTAGTGCAG	8710 fluorescence intensity (a.u.)
AACATTTCGCTTCTATCTGCCGCTTATAAGCCAAAACTTACGGAGTCACCTAGTGCAG	10200 fluorescence intensity (a.u.)
CGCCTCCGCTTCGATCGCTTCCTCCGTTGCCGCCGATCCCCGGAGTCACCTAGTGCAG	8100 fluorescence intensity (a.u.)
GGATATTTCTGACACAGGGCGCGTTTTTTTTTTTTTTATTCGGAGTCACCTAGTGCAG	9600 fluorescence intensity (a.u.)
CGCCTCACCCACTTCGCCCGCCGCCTCCGTCTCCATCAACCGGAGTCACCTAGTGCAG	9760 fluorescence intensity (a.u.)
GATTTTTCTTTACATGTTCTTTTTCATCGATCTTTTGAGACGGAGTCACCTAGTGCAG	9460 fluorescence intensity (a.u.)
CATATATGCACCCCGGGTCACTAGCTACCTTTACCTTTTTCGGAGTCACCTAGTGCAG	8480 fluorescence intensity (a.u.)
GTTGCCGCATTCGCACCGTCTCCGCCTTCATGGCCTGTTTCGGAGTCACCTAGTGCAG	13700 fluorescence intensity (a.u.)
CATGCACGCTTGCTAAACTGTGTGTTTTTTAAAATTTTTCCGGAGTCACCTAGTGCAG	8180 fluorescence intensity (a.u.)
ACCATTCGGCATTCGCTTTGCTAGCCTTTGTTTTCTATATCGGAGTCACCTAGTGCAG	11300 fluorescence intensity (a.u.)
GGTCCCTAAACTTGTACTGCTGTGTCATCCCGGTCCCTAACGGAGTCACCTAGTGCAG	8680 fluorescence intensity (a.u.)
TCCATTTGTCACCCGGTTTTATCCTACGTGGCGCTTTGACCGGAGTCACCTAGTGCAG	8630 fluorescence intensity (a.u.)
ATCTGCTAACCATCTTATATTGTTATGTCGTACATTGCACCGGAGTCACCTAGTGCAG	10100 fluorescence intensity (a.u.)

Part of the list above, as labelled records.
AAGAACTGATCATCGACTGACATCACTACCTTTTTCATATCGGAGTCACCTAGTGCAG
  binding signal: 8610 fluorescence intensity (a.u.)
ACTGCTCCTCGCTTTCGTTTCTCCGAGAGGTTTAGGTTAACGGAGTCACCTAGTGCAG
  binding signal: 11300 fluorescence intensity (a.u.)

(listing goes on)

Sequence	binding signal
AGCTGCAAACAACGAACTCACTCCATTTCATCTTTTTCTACGGAGTCACCTAGTGCAG	8790 fluorescence intensity (a.u.)
ATTTCATCGCGCTTCCATAGTTACTCTGACTCCCTAGCTACGGAGTCACCTAGTGCAG	10000 fluorescence intensity (a.u.)
CAACCGGGCGTCGCTTTAATGGCTTAGTACGCCCTATTTTCGGAGTCACCTAGTGCAG	8340 fluorescence intensity (a.u.)
GATTTAGCATCTATCTCTTTCATGCGTTACACACTTTTCACGGAGTCACCTAGTGCAG	12600 fluorescence intensity (a.u.)
ATTACTACTGCCTCTATGGCTCTATCCCAATTAATCATACCGGAGTCACCTAGTGCAG	8890 fluorescence intensity (a.u.)
CCTACCATCTCTACAAGGTATATTAGCAGTTAGTACATTTCGGAGTCACCTAGTGCAG	9770 fluorescence intensity (a.u.)
GCGATTGAAAAGCTAGCCATCGCTCCGTCCTGCCGTTCGTCGGAGTCACCTAGTGCAG	9000 fluorescence intensity (a.u.)
ACCTTATTGGGGAGCTTTACAGCCTCATATTTTTCTTATTCGGAGTCACCTAGTGCAG	8140 fluorescence intensity (a.u.)
CTTGCTTGCTGCTATGGCCATGCCTAATGTGTTGTCGCACCGGAGTCACCTAGTGCAG	11100 fluorescence intensity (a.u.)
GGTGTTTGGATCCAGAGACTTAACTTTAGTCTCTGTATTTCGGAGTCACCTAGTGCAG	8550 fluorescence intensity (a.u.)
CTCCCTACACAAGACACCTTGAGATTTCTTATGTCACTTTCGGAGTCACCTAGTGCAG	9740 fluorescence intensity (a.u.)
AATCACGTCTCAACTTTCTGTCTATCACAATCAGTGTTCTCGGAGTCACCTAGTGCAG	9630 fluorescence intensity (a.u.)
CCTTTTCCCTTCTGTGTTTCTCGGCACGACCAACTGTTGCCGGAGTCACCTAGTGCAG	10200 fluorescence intensity (a.u.)
AATATTATTTGTACTTATTTTGTCGGCCTAATTGATGTACCGGAGTCACCTAGTGCAG	9100 fluorescence intensity (a.u.)
GATTCTATACTTTTATTTAACTTCTGCTGATGCCGAGCGGCGGAGTCACCTAGTGCAG	8100 fluorescence intensity (a.u.)
ATCGGGTCATATTCTCGTGTACATCTACTAGCACAACATTCGGAGTCACCTAGTGCAG	13200 fluorescence intensity (a.u.)
GTTCTTATCCTCCTCTGCCAGCAGTGACTCACCTCGCCACCGGAGTCACCTAGTGCAG	10700 fluorescence intensity (a.u.)
TTTACTCGGCCATCACATGGATCTTGGGCTCAGCAATATTCGGAGTCACCTAGTGCAG	8480 fluorescence intensity (a.u.)
GGATGGGATGGGATCGGATCGGCGCAGGGCCAAGGCCCGACGGAGTCACCTAGTGCAG	8940 fluorescence intensity (a.u.)
CAAGGGGTGGAGGGTCGCTGGCGATTTCTTAAGAAATCCGCGGAGTCACCTAGTGCAG	8980 fluorescence intensity (a.u.)
CTTTGGCTTCTTGCCTACCGCGTTCTTGGTGATCGTTGGTCGGAGTCACCTAGTGCAG	8270 fluorescence intensity (a.u.)

An excerpt of these results, with each value named.
ATTACTACTGCCTCTATGGCTCTATCCCAATTAATCATACCGGAGTCACCTAGTGCAG
  binding signal = 8890 fluorescence intensity (a.u.)
CCTACCATCTCTACAAGGTATATTAGCAGTTAGTACATTTCGGAGTCACCTAGTGCAG
  binding signal = 9770 fluorescence intensity (a.u.)
GCGATTGAAAAGCTAGCCATCGCTCCGTCCTGCCGTTCGTCGGAGTCACCTAGTGCAG
  binding signal = 9000 fluorescence intensity (a.u.)
